Hit rate of the full screen: of about 300,000 compounds, about 5,400 (1.8%) were called active. The shares of active, inactive and inconclusive entries below differ from those in the screen. Calls come from the whole dose curve; tested in HEK293 cells. Potencies beside an inconclusive call are fits to weak or partial responses and may not hold up.
Test: qHTS for inhibitors of binding or entry into cells for Marburg Virus
Settings: Marburg virus pseudotyped entry inhibition, cell reporter; series mostly up to 37.8 µM
Potency is the fitted concentration of half-maximal effect.

Row | Compound | Potency
1 | CCC(O)c1nc2ccccc2n1CCOc1cc(C)cc(C)c1 (configuration not stated) | inconclusive: 2.51 µM [inhibitor, partial curve, poor fit]
2 | CC(C)C1C(=O)N(Cc2cn(Cc3ccco3)nn2)CCS(=O)(=O)N1Cc1ccc(-c2ccc(F)cc2)cc1 (configuration not stated) | inconclusive: 6.28 µM [inhibitor, full curve, poor fit]
3 | O=C(NC1C/C(=N/O)c2cc3c(cc21)OCO3)C(F)(F)F (configuration not stated) | inactive
4 | O=C(NC1CC1)c1cc(=O)c2ccccc2o1 | inactive
5 | Cc1cc(NC(=O)c2cc(-c3ccccc3)on2)no1 | inconclusive: 0.164 µM [inhibitor, full curve, poor fit]
6 | Nc1ccc2oc3ccccc3c2c1 | inconclusive: 3.16 µM [activator, partial curve, poor fit]
7 | Cc1ccc(Sc2cc(C(=O)NCCCN(C)C)c3ccccc3n2)cc1 | inconclusive: 10 µM [inhibitor, partial curve, poor fit]
8 | COc1cccc(NC(=O)CCc2nnc3n(CC(C)C)c(=O)c4ccccc4n23)c1 | inconclusive: 3.16 µM [inhibitor, single point]
9 | O=C(COc1ccc(Br)cc1Br)NC(=O)NC1CCCC1 | inconclusive: 15.8 µM [inhibitor, single point]
10 | CN(c1ccccc1)S(=O)(=O)c1cc(C(=O)N2CCN(c3ccccn3)CC2)ccc1Cl | inconclusive: 35.5 µM [inhibitor, single point]
11 | NC(=O)C1CCN(C(=O)CSc2ccccn2)CC1 | inactive
12 | Cc1nn(-c2ccccc2)c(C)c1NC(=O)COc1ccc2ccccc2c1 | inconclusive: 29.1 µM [inhibitor, single point]
13 | CCSc1nnc(NC(=O)c2cc(-c3ccccc3O)n[nH]2)s1 | inactive
14 | Cc1cc(C)cc(NS(=O)(=O)c2ccc3[nH]cc(C(=O)NCc4ccco4)c(=O)c3c2)c1 | inconclusive: 20 µM [inhibitor, partial curve, poor fit]
15 | CCOc1nc(-c2ccncc2)nc2ccccc12 | inconclusive: 6.51 µM [inhibitor, partial curve, poor fit]
16 | COc1ccc(C2CC(c3cccs3)=NN2C(=O)COC(=O)c2cc3ccccc3cc2O)cc1OC (configuration not stated) | inconclusive: 2.51 µM [inhibitor, single point]
17 | COc1ccc(NC(=O)CCCC(=O)O)cc1Cl | inconclusive: 1.26 µM [activator, partial curve, poor fit]
18 | Cn1c(N)c(C(=O)CSc2nnc(Cc3cccs3)n2C2CC2)c(=O)n(C)c1=O | inactive
19 | CCOC(=O)c1nn(-c2ccc(OCC)cc2)c2nc(-c3ccco3)c(C#N)c(=O)n12 | inactive
20 | CNS(=O)(=O)c1cccc(C(=O)OC2CCOC2=O)c1 (configuration not stated) | inconclusive: 11.2 µM [activator, partial curve, poor fit]
21 | O=C(Nc1cccc(S(=O)(=O)N2CCCCCC2)c1)c1ccc2c(c1)OCO2 | inconclusive: 14.1 µM [inhibitor, single point]

Row | Compound | Potency
22 | Cc1cc2c(c(/C=C/C(=O)c3ccccc3)c1)OC1(C=C2)Oc2ccccc2C(=O)N1C (configuration not stated) | inconclusive: 11.2 µM [inhibitor, partial curve, poor fit]
23 | CCCc1nnc(NC(=O)CCC(=O)N2CCN(CCOc3ccc(C)cc3)CC2)s1 | inconclusive: 20 µM [inhibitor, single point]
24 | Cc1ccc(-c2cc(C(=O)NCCCn3ccnc3)c3cc(Br)ccc3n2)o1 | inconclusive: 20 µM [inhibitor, single point]
25 | CCOc1cc(NC(=O)c2ccco2)c(OCC)cc1NC(=O)c1cc(OC)c(OC)c(OC)c1 | inconclusive: 29.1 µM [inhibitor, single point]
26 | CCOC(=O)c1cc2c(=O)n3ccccc3nc2n(CC2CCCO2)c1=NC(=O)c1cc(C)cc(C)c1 (configuration not stated) | inconclusive: 5.62 µM [inhibitor, full curve, poor fit]
27 | COc1ccc2c(c1)CCc1c-2nc2ccccc2c1N1CCOCC1 | inconclusive: 20 µM [inhibitor, single point]
28 | C/C(=N\N1CCN(Cc2ccccc2Cl)CC1)c1ccc([N+](=O)[O-])cc1 | inconclusive: 35.5 µM [inhibitor, single point]
29 | Cc1ccc(OCC(O)CNCc2ccccc2)cc1C (configuration not stated) | inconclusive: 35.5 µM [inhibitor, single point]
30 | O=C1c2ccncc2C(=O)N1c1cccc(Cl)c1 | inactive
31 | O=C(c1cccc([N+](=O)[O-])c1)N1CCN(c2n[nH]c(=O)[nH]c2=O)CC1 | inactive
32 | O=C(COC(=O)CC1c2ccccc2CCN1S(=O)(=O)c1ccccc1)Nc1ccccc1 (configuration not stated) | inconclusive: 0.562 µM [inhibitor, partial curve, poor fit]
33 | CCOC(=O)c1ccc(N=C2SC(C(=O)Nc3ccc(C(=O)O)cc3)CC(=O)N2Cc2cccs2)cc1 (configuration not stated) | inconclusive: 12.6 µM [inhibitor, single point]
34 | Cc1ccc(CCC(=O)Nc2ccc(S(N)(=O)=O)cc2)o1 | inactive
35 | COc1cc(C=C2C(=O)OC(C)(C)OC2=O)cc(Cl)c1OCC(=O)Nc1ccccc1 | inactive
36 | O=C(Nc1ccccc1)C1CCN(C(=O)c2ccc([N+](=O)[O-])cc2)CC1 | inconclusive: 3.55 µM [activator, single point]
37 | N#Cc1c(-c2cccs2)nc(SCc2ccc(Cl)cc2)[nH]c1=O | inconclusive: 2.82 µM [activator, partial curve, poor fit]
38 | COc1cccc(CN(C)C(=O)c2ccc(NS(=O)(=O)c3ccc4[nH]c(=O)[nH]c4c3)cc2)c1OC | inactive
39 | CS(=O)(=O)Oc1ccc2c(c1)O/C(=C\C=C\c1ccccc1)C2=O | inactive
40 | COc1ccc(N)cc1-n1c(C)ccc1C | inconclusive: 12.6 µM [inhibitor, partial curve, poor fit]
41 | OC(CCN1CCOCC1)(c1ccc(Cl)cc1)C1CCCCC1 (configuration not stated) | inconclusive: 35.5 µM [inhibitor, single point]
42 | Cc1nnsc1C(=O)Nc1ccc(S(=O)(=O)N2CCC(C)CC2)cc1 | inconclusive: 0.794 µM [inhibitor, full curve, poor fit]

2 of these compounds, set out differently.
Row,Compound,Potency
7,Cc1ccc(Sc2cc(C(=O)NCCCN(C)C)c3ccccc3n2)cc1,"inconclusive: 10 µM [inhibitor, partial curve, poor fit]"
8,COc1cccc(NC(=O)CCc2nnc3n(CC(C)C)c(=O)c4ccccc4n23)c1,"inconclusive: 3.16 µM [inhibitor, single point]"

From PubChem BioAssay AID540276 (National Center for Advancing Translational Sciences (NCATS), 2011)
